# Measurements reported in PubChem BioAssay AID602196 (INSERM, 2012).
# Screen: 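Knock-downs that protect lung cancer cells from cisplatin or sensitise them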
# Cell system: human A549 lung cancer cells
# Reagent: siRNA pair against human genes
# Duration: 48 h transfection before cisplatin; time from cisplatin to read-out not stated
# Challenge: cisplatin at a dose killing half of control-siRNA cells; exact dose and duration not given
# Measured: 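Shift in cisplatin death relative to control siRNA, from -50 (all cells die) to +50 (no cells die); siRNAs harmful on their own scored 0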
# Direction: two-siRNA summed score (-2 to +2): higher = both siRNAs protect from cisplatin killing; -2 means both sensitise
# Hit rule: 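Each siRNA scores 0 if harmful alone by LDH or WST-1, otherwise +1 if it reduces and -1 if it increases cisplatin killing; a gene is active when both siRNAs agree (sum +2 or -2)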
# Meaning of the calls: active = both siRNAs shift cisplatin killing the same way; inactive = no consistent shift, or siRNA harmful alone
# Shown is one part, drawn at random, of about 23,000 reagents. 455 of all reagents (2%) were called active. 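Active includes both protection and sensitisation; some change values fall well beyond the stated -50 to +50 range.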 A number with no mark means an inactive call. Not all columns of the deposit are shown. The record does not give: the amount of reagent.
gene,two-siRNA summed score (-2 to +2)
MRPS17 (mitochondrial ribosomal protein S17),-1
ABLIM1 (actin binding LIM protein 1),1
TSSK3 (testis specific serine kinase 3),1
LOC440012,0
PKP2 (plakophilin 2),0
MRPS9 (mitochondrial ribosomal protein S9),0
KCNV2,0
PPFIA1 (PPFI scaffold protein A1),0
PRRT1 (proline rich transmembrane protein 1),0
PCDHA8 (protocadherin alpha 8),0
SNAP91 (synaptosome associated protein 91),0
PSMB1 (proteasome 20S subunit beta 1),1
KLF9 (KLF transcription factor 9),0
AGT (angiotensinogen),-1
YJU2 (YJU2 splicing factor homolog),-1
PRL (prolactin),0
LOC440088,0
"RAB3B (RAB3B, member RAS oncogene family)",0
EIF2S1 (eukaryotic translation initiation factor 2 subunit alpha),0
WDR35 (WD repeat domain 35),1
CLEC20A (C-type lectin domain containing 20A),0
PLPP4 (phospholipid phosphatase 4),0
CRLF3 (cytokine receptor like factor 3),-1
LOC285248,1
LALBA (lactalbumin alpha),0
LOC401062,0
C10orf88B (C10orf88B (pseudogene)),0
H2AJ (H2A.J histone),0
"TUT1 (terminal uridylyl transferase 1, U6 snRNA-specific)",-1
ZNF561-AS1 (ZNF561 antisense RNA 1),0
LGALS8 (galectin 8),-1
OR5D16 (olfactory receptor family 5 subfamily D member 16),0
"RTCB (RNA 2',3'-cyclic phosphate and 5'-OH ligase)",0
SYNPR (synaptoporin),1
MAGEC3 (MAGE family member C3),0
TAF12 (TATA-box binding protein associated factor 12),1
PTGS2 (prostaglandin-endoperoxide synthase 2),0
KBTBD11 (kelch repeat and BTB domain containing 11),1
PLA2G1B (phospholipase A2 group IB),-1
LOC442625,0
NECTIN3 (nectin cell adhesion molecule 3),-1
LOC389652,1
STATH (statherin),0
PCOLCE (procollagen C-endopeptidase enhancer),1
SCLY (selenocysteine lyase),0
ISM2 (isthmin 2),0
MID1 (midline 1),-1
SLC9A5,0
CA7 (carbonic anhydrase 7),1
ENO2 (enolase 2),-1
DCAF17 (DDB1 and CUL4 associated factor 17),0
LOC440449,0
FXYD1 (FXYD domain containing ion transport regulator 1),0
RASGRF1 (Ras protein specific guanine nucleotide releasing factor 1),0
LOC388180,0
"SENP8 (SUMO peptidase family member, NEDD8 specific)",0
HOXB13 (homeobox B13),0
